This is an account of results in PubChem BioAssay AID2685 (National Center for Advancing Translational Sciences (NCATS), 2010).

The other results are listed elsewhere or left out. Shown are side measurements of this screen, not its main read-out; they come without a call. The list favours compounds with an active or inconclusive main result. Words in brackets tell the shape of the fitted curve; partial curves, single points and poor fits give uncertain potencies.

A short description of the test: qHTS Assay for Lipid Storage Modulators in Drosophila S3 Cells.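 On cell number change: cells counted by Cell Tracker Red CMTPX staining in the red channel.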 To be noted: BODIPY lipid droplet fluorescence, 18-24 h; for cell number change: measured here: cell count max response, cells fed with added oleic acid. The gist of the method:
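Laser-scanning cytometry quantifies lipid droplet accumulation (500–530 nm total intensity; droplet/cell object ratio) in oleic acid-fed (400 uM added) Drosophila S3 cells treated with a concentration series. 20 uM Triacsin C defined 100% inhibition.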
On the technique in general: In qHTS, concentration-response curves come from the screen itself.

[1] abbreviates: measured here: lipid fluorescence (Fed channel) AC50, cells fed with added oleic acid.
Setting [2] is: measured here: cell number channel AC50, cells fed with added oleic acid.

Regarding `O=C(NCCCCc1ccccc1)c1ccccc1F`, the cell number change was -10.2%. Further, the AC50 – broadly, the midpoint of the concentration-response curve, whichever way the signal moves – under setting [1] is 5.8 µM [falling, full curve].

Regarding `C1CCC2(CC1)OCC1(CO2)COC2(CCCCC2)OC1`, the cell number change is -7.16%. The AC50 under setting [1] is 0.651 µM [falling, full curve, poor fit].

On to `CC(C)NS(=O)(=O)c1ccc(OCC(=O)Nc2ccc3c(c2)OCO3)c(Cl)c1`, for which the cell number change was 93.2%. For the same compound, the AC50 under setting [2] was 18.4 µM [rising, partial curve, poor fit]. Further, under setting [1], the AC50 was 0.0731 µM [rising, full curve].

In the case of `CC(=O)Oc1ccc2c(c1)OC(c1ccccc1)CC21CC(C)(C)NC(=S)N1` (configuration not stated), the cell number change came to 14.9%. Further, the AC50 under setting [1] is 29.1 µM [rising, single point].

On to `O=C(O)CCC(=O)N1N=C(c2ccc(Br)cc2)CC1c1cccc(Br)c1` (configuration not stated), for which the cell number change was -17.8%.

In the case of `CCCN1C(=O)c2ccc(C(=O)Nc3cc(C)on3)cc2C1=O`, the half-maximal activity concentration (AC50) under setting [1] was 23.1 µM [rising, single point].

`Cc1cccc(Nc2ccc([N+](=O)[O-])cc2C(=O)O)c1`: the cell number change was determined as 28.4%.

As to `COc1ccc(NC(=O)c2c(OC)cccc2OC)c(OC)c1`, the cell number change was -2.5%. Also, the AC50 under setting [1] is 29.1 µM [rising, single point].

As to `COc1ccc(C(=O)Nc2ccc(Cl)cn2)cc1S(=O)(=O)N1CCCC1`, the cell number change stood at 40.4%. Besides, the AC50 under setting [2] is 9.2 µM [rising, partial curve, poor fit]. For the same compound, under setting [1], the AC50 is 1.03 µM [rising, partial curve, poor fit].

Turning to `CC(C(=O)NC1C=CS(=O)(=O)C1)N1C(=O)/C(=C/c2ccc(Cl)cc2)SC1=S` (configuration not stated), the cell number change was -14.1%. The AC50 under setting [1] was 29.1 µM [rising, single point].

On to `O=C(NCC(=O)N1CCOCC1)c1ccc(Br)cc1`, for which the cell number change worked out at 11.1%. In addition, under setting [1], the half-maximal activity concentration (AC50) was 18.4 µM [rising, partial curve, poor fit].

On to `CCOC(=O)N1CCN(C(=O)c2ccc3nc(-c4ccccc4)c(-c4ccccc4)nc3c2)CC1`, for which the AC50 under setting [1] was 4.61 µM [rising, single point].

In the case of `COc1ccccc1NC(=S)N(CCc1nc2cc(C)c(C)cc2[nH]1)Cc1cccnc1`, the cell number change is -7.76%. Besides, the AC50 under setting [1] was 1.3 µM [falling, full curve].

Regarding `COc1cc2c(=O)n(Cc3ccccc3)c(=O)n(CC(=O)NCC3CCCO3)c2cc1OC` (configuration not stated), the cell number change was found to be 3.67%. In addition, the AC50 under setting [1] is 5.8 µM [rising, partial curve].

`O=C(COC(=O)/C=C/c1ccc2c(c1)OCO2)Nc1ccc(S(=O)(=O)N2CCCC2)cc1`: the cell number change was -67%. Further, the AC50 under setting [2] was 9.2 µM [falling, partial curve]. Also, the AC50 under setting [1] was 29.1 µM [falling, single point].

As to `NS(=O)(=O)c1cccc(NC(=S)NC(=O)c2cccc([N+](=O)[O-])c2)c1`, the cell number change is -32%. In addition, under setting [2], the concentration at half-maximal activity (AC50) was 29.1 µM [falling, single point]. In addition, the AC50 under setting [1] was 29.1 µM [falling, single point].

For `CC(C)Nc1nnc(Sc2ccc(Cl)cc2[N+](=O)[O-])s1`, the cell number change came to 31.7%. Under setting [2], the AC50 is 8.2 µM [rising, partial curve]. Also, the half-maximal activity concentration (AC50) under setting [1] is 8.2 µM [rising, partial curve].

With `CC(C)(C)OC(=O)N1CCC(NC(=O)c2nc[nH]c2C(=O)N2CCN(C(=O)OC(C)(C)C)CC2)CC1`, the cell number change worked out at 15.6%. Under setting [2], the AC50 is 0.0231 µM [falling, full curve, poor fit]. In addition, the half-maximal activity concentration (AC50) under setting [1] is 0.00517 µM [falling, full curve, poor fit].

In the case of `CSCCC(NS(=O)(=O)c1ccc(Cl)cc1)C(=O)OCC(=O)N1CCOCC1` (configuration not stated), the cell number change was 1.17%. Moreover, under setting [1], the AC50 was 0.00517 µM [falling, full curve, poor fit].

Regarding `CCCCCOC(=O)C1=C(C)Nc2ncnn2C1c1cccs1` (configuration not stated), the cell number change was found to be 24.4%. In addition, the AC50 under setting [2] was 0.366 µM [rising, full curve, poor fit]. The concentration at half-maximal activity (AC50) under setting [1] was 0.164 µM [rising, full curve, poor fit].

As to `CC1=C([N+](=O)[O-])C(c2ccccc2Cl)NC(=O)N1` (configuration not stated), the cell number change worked out at 12%. Moreover, under setting [1], the AC50 is 1.03 µM [rising, full curve].

In the case of `CCCCCc1nnc(NC(=O)Cn2cnc3ccccc3c2=O)s1`, the cell number change came out at 12.5%. Besides, under setting [1], the half-maximal activity concentration (AC50) is 0.0291 µM [rising, full curve, poor fit].

As to `O=S(=O)(Nc1cccnc1)c1cccs1`, the cell number change was determined as 6.88%.

Regarding `O=C(N/N=C/c1sc(N2CCOCC2)nc1-c1ccccc1)c1ccccc1O`, the cell number change was -83.3%. The AC50 under setting [2] was 29.1 µM [falling, single point]. Besides, the AC50 under setting [1] is 29.1 µM [falling, single point].

With `Cc1nn(C2CCS(=O)(=O)C2)c(C)c1CN(C)C(=O)c1ccc(Cl)cc1` (configuration not stated), the cell number change was -11.3%. Also, the AC50 under setting [1] is 6.51 µM [falling, single point].

Regarding `O=C(Nc1nc(-c2cccs2)cs1)c1ccc(Cl)s1`, the cell number change was -17.4%. In addition, under setting [1], the AC50 was 9.2 µM [falling, partial curve].

For `Nc1oc2ccccc2c1C(=O)Cc1ccccc1O[C@@H]1O[C@H](CO)[C@@H](O)[C@H](O)[C@H]1O`, the cell number change was -30.5%. Further, the AC50 under setting [2] is 1.46 µM [falling, partial curve, poor fit]. Besides, the AC50 under setting [1] was 1.03 µM [falling, full curve].

As to `O=C(Nc1nc(-c2ccc(Cl)s2)cs1)c1ccncc1`, the cell number change was -42.4%. Moreover, the AC50 under setting [2] was 2.91 µM [falling, full curve]. Also, the AC50 under setting [1] was 2.59 µM [falling, full curve].

With `Cc1[nH]c(C)c(S(=O)(=O)NCc2ccc(OC(C)C)cc2)c1C(=O)N1CCCC1`, the cell number change is 11.9%. Further, under setting [2], the AC50 was 5.8 µM [rising, partial curve].

Turning to `CCOc1ccc(N(CC(=O)NCc2ccc3c(c2)OCO3)C(=O)c2csnn2)cc1`, the cell number change was determined as 18.1%.

As to `COc1ccc(NC(=O)CSc2nc(=O)n(CCN3CCOCC3)c3c2CCCC3)c(OC)c1`, the cell number change came out at 14.9%. Besides, under setting [2], the half-maximal activity concentration (AC50) was 0.58 µM [rising, partial curve, poor fit]. In addition, the AC50 under setting [1] is 0.259 µM [rising, full curve, poor fit].

As for `COc1ccc(/C=C/C(=O)Nc2cc(S(=O)(=O)N3CCOCC3)ccc2C)cc1OC`, the cell number change is -0.726%. The AC50 under setting [1] is 0.231 µM [rising, full curve, poor fit].

As for `COc1cc(NC(=O)C2=CC(c3ccc(C)cc3)=NS(=O)(=O)N2C)cc(OC)c1OC`, the AC50 under setting [1] is 1.16 µM [falling, partial curve, poor fit].

As for `Cc1ccc(C)c(Oc2coc3cc(O)ccc3c2=O)c1`, the cell number change is -1.8%.

On to `CC(=O)c1ccc(OCC(O)CN2CC(C)OC(C)C2)cc1` (configuration not stated), for which the cell number change came to 4.69%.
